Measurements reported in PubChem BioAssay AID1224826 (NIAID, 2016).

Test: 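Knock-downs that raise or lower Tnf reporter signal after endotoxin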 (primary screen)
System: RAW264.7 G9 macrophages from mouse bearing reporters for p65 (GFP) and the Tnf promoter (mCherry)
Reagent: siRNA pool against mouse genes, 100 nM
Duration: 16 h of LPS stimulation, after 2 days of siRNA transfection
Challenge: bacterial lipopolysaccharide (Salmonella minnesota R595), 10 ng/ml
Measured: 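Imaged Tnf reporter mCherry in nuclei, minus background, normalised per plate to the median and expressed as robust z-scores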
Scale: Tnf reporter robust z-score: higher = stronger Tnf promoter reporter signal after LPS; Tnf reporter intensity: higher = stronger Tnf promoter reporter signal
Hit rule: 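a well counts as active at a score of -1.3 or below (Tlr4 knock-down control median) or above 3 (raised signal); controls and wells holding fewer than 50 cells are excluded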
Meaning of the calls: active = Tnf reporter clearly lowered or raised; inactive = no clear change in Tnf reporter
The deposit covers about 17,000 reagents; below is a part drawn at random. In the full data, about 1,110 (6.6%) were called active. 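Active means lowered or raised reporter signal; replicate intensities are raw and not normalised per plate.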 A number with no mark means an inactive call. A reagent listed more than once was tested more than once; the source does not tell the runs apart. Further read-outs or replicates are left out here. No sequences are given here.

target	Tnf reporter robust z-score	fewer than 50 cells in well	Tnf reporter intensity, replicate 1
Id4 (inhibitor of DNA binding 4)	0.75	enough cells in well	311
Hccs (holocytochrome c synthetase)	-0.08	enough cells in well	234
H2-M1 (histocompatibility 2, M region locus 1)	0.6	enough cells in well	276
Fchsd1 (FCH and double SH3 domains 1)	2.49	enough cells in well	435
Supt5 (suppressor of Ty 5, DSIF elongation factor subunit)	-1.71 (active)	enough cells in well	130
2310033P09Rik (RIKEN cDNA 2310033P09 gene)		fewer than 50 cells per well; well left out of calls	141
Prps2 (phosphoribosyl pyrophosphate synthetase 2)	-0.11	enough cells in well	168
Tfec (transcription factor EC)	-0.55	enough cells in well	200
Bicd1 (BICD cargo adaptor 1)	0.84	enough cells in well	159
Myh10 (myosin, heavy polypeptide 10, non-muscle)	-1.2	enough cells in well	141
Dpf3 (double PHD fingers 3)	-0.75	enough cells in well	145
Gng7 (guanine nucleotide binding protein (G protein), gamma 7)	0.27	enough cells in well	194
Slc46a1	-0.1	enough cells in well	194
Snx14 (sorting nexin 14)	-0.88	enough cells in well	77.4
Tbcc (tubulin-specific chaperone C)	-0.42	enough cells in well	211
Lrrn1 (leucine rich repeat protein 1, neuronal)	-0.54	enough cells in well	157
Slc30a9		fewer than 50 cells per well; well left out of calls	38.4
Cpxm2 (carboxypeptidase X, M14 family member 2)	-0.18	enough cells in well	155
Wfikkn2	-0.76	enough cells in well	107
Gys2 (glycogen synthase 2)	0.23	enough cells in well	292
Eif2ak2 (eukaryotic translation initiation factor 2-alpha kinase 2)	0.42	enough cells in well	200
Gfm2 (G elongation factor, mitochondrial 2)	-0.22	enough cells in well	154
Palm (paralemmin)	-1.5 (active)	enough cells in well	70.8
Acp5 (acid phosphatase 5, tartrate resistant)	0.66	enough cells in well	177
Ifna6 (interferon alpha 6)	-0.86	enough cells in well	177
Aqp8 (aquaporin 8)	0.08	enough cells in well	166
Tmprss5 (transmembrane protease, serine 5 (spinesin))		fewer than 50 cells per well; well left out of calls	113
Sltm (SAFB-like, transcription modulator)	0.64	enough cells in well	210
Col4a6 (collagen, type IV, alpha 6)	-0.63	enough cells in well	204
Insl5 (insulin-like 5)	-0.09	enough cells in well	262
Tnk2 (tyrosine kinase, non-receptor, 2)		fewer than 50 cells per well; well left out of calls	119
Otud5 (OTU domain containing 5)	-1.23	enough cells in well	113
Rab4a (RAB4A, member RAS oncogene family)	-0.08	enough cells in well	307
Ndufb11b (NADH:ubiquinone oxidoreductase subunit B11B)	-1.58 (active)	enough cells in well	89.7
Sv2b (synaptic vesicle glycoprotein 2b)	1.16	enough cells in well	149
Tbc1d12 (TBC1D12: TBC1 domain family, member 12)	-0.81	enough cells in well	86.7
Klhl13 (kelch-like 13)	-0.91	enough cells in well	145

8 of these entries, set out differently:
{"target":"Tfec (transcription factor EC)","Tnf reporter robust z-score":-0.55,"fewer than 50 cells in well":"enough cells in well","Tnf reporter intensity, replicate 1":200}
{"target":"Bicd1 (BICD cargo adaptor 1)","Tnf reporter robust z-score":0.84,"fewer than 50 cells in well":"enough cells in well","Tnf reporter intensity, replicate 1":159}
{"target":"Myh10 (myosin, heavy polypeptide 10, non-muscle)","Tnf reporter robust z-score":-1.2,"fewer than 50 cells in well":"enough cells in well","Tnf reporter intensity, replicate 1":141}
{"target":"Dpf3 (double PHD fingers 3)","Tnf reporter robust z-score":-0.75,"fewer than 50 cells in well":"enough cells in well","Tnf reporter intensity, replicate 1":145}
{"target":"Gng7 (guanine nucleotide binding protein (G protein), gamma 7)","Tnf reporter robust z-score":0.27,"fewer than 50 cells in well":"enough cells in well","Tnf reporter intensity, replicate 1":194}
{"target":"Slc46a1","Tnf reporter robust z-score":-0.1,"fewer than 50 cells in well":"enough cells in well","Tnf reporter intensity, replicate 1":194}
{"target":"Snx14 (sorting nexin 14)","Tnf reporter robust z-score":-0.88,"fewer than 50 cells in well":"enough cells in well","Tnf reporter intensity, replicate 1":77.4}
{"target":"Tbcc (tubulin-specific chaperone C)","Tnf reporter robust z-score":-0.42,"fewer than 50 cells in well":"enough cells in well","Tnf reporter intensity, replicate 1":211}

Next reagents follow.
target	Tnf reporter robust z-score	fewer than 50 cells in well	Tnf reporter intensity, replicate 1
Sh3bp2 (SH3-domain binding protein 2)	-0.32	enough cells in well	222
Osgin1 (oxidative stress induced growth inhibitor 1)		fewer than 50 cells per well; well left out of calls	250
Or51h5 (olfactory receptor family 51 subfamily H member 5)		fewer than 50 cells per well; well left out of calls	95.8
Daxx (Fas death domain-associated protein)	-0.44	enough cells in well	216
Cdk19 (cyclin dependent kinase 19)	0.15	enough cells in well	168
Cdk19 (cyclin dependent kinase 19)	0.23	enough cells in well	279
Pramel12 (PRAME like 12)		fewer than 50 cells per well; well left out of calls	120
Mdh1 (malate dehydrogenase 1, NAD (soluble))	-1.57 (active)	enough cells in well	91.6
Anapc16 (anaphase promoting complex subunit 16)	0.44	enough cells in well	219
Gcsh	-0.29	enough cells in well	156
Vash1 (vasohibin 1)	0.57	enough cells in well	270
Adamtsl4 (ADAMTS-like 4)	-0.87	enough cells in well	91.4
Il15 (interleukin 15)	-0.29	enough cells in well	195
Camk2a (calcium/calmodulin-dependent protein kinase II alpha)	-1.12	enough cells in well	113
Slc22a6	0.87	enough cells in well	130
Dhh (desert hedgehog)	1.21	enough cells in well	297
Msrb3 (methionine sulfoxide reductase B3)	1.2	enough cells in well	297
Ip6k3 (inositol hexaphosphate kinase 3)	-0.74	enough cells in well	151
Rbm12b1 (RNA binding motif protein 12 B1)	0.75	enough cells in well	215
Ifitm2 (interferon induced transmembrane protein 2)	-1.27	enough cells in well	118
Cd300ld3 (CD300 molecule like family member D3)	0.48	enough cells in well	172
Luzp2 (leucine zipper protein 2)	0.39	enough cells in well	225
Rtl1 (retrotransposon Gaglike 1)	2.45	enough cells in well	259
Selenoi (selenoprotein I)	-1.36 (active)	enough cells in well	135
5430414B19Rik (RIKEN cDNA 5430414B19 gene)	-1.08	enough cells in well	129
Lypd6 (LY6/PLAUR domain containing 6)	0.85	enough cells in well	260
Zfpl1 (zinc finger like protein 1)	0.66	enough cells in well	175
Mapk1ip1l	-0.2	enough cells in well	97.3
Nfs1 (nitrogen fixation gene 1 (S. cerevisiae))	-0.96	enough cells in well	160
Adgrf5 (adhesion G protein-coupled receptor F5)	-1	enough cells in well	138
Cep104 (centrosomal protein 104)	0.65	enough cells in well	155
Mri1 (methylthioribose-1-phosphate isomerase 1)	-0.12	enough cells in well	190
Slc25a16	0.58	enough cells in well	105
B3gnt7	0.77	enough cells in well	231
Rasip1 (Ras interacting protein 1)	0.18	enough cells in well	134
Lrrc8a (leucine rich repeat containing 8A VRAC subunit A)	-1.35 (active)	enough cells in well	98.7
Rai14 (retinoic acid induced 14)	1.54	enough cells in well	184
Or52a33 (olfactory receptor family 52 subfamily A member 33)	2.18	enough cells in well	162
